PubChem BioAssay AID1259405, NCATS, 2018

- Purpose: 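Mouse-designed siRNAs used to find CHO productivity engineering targets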 (primary screen)
- Cells: Chinese hamster CHO-K1 ovary cells with stable secreted eGFP expression
- Knock-down reagent: single siRNA against mouse genes, 0.8 pmol siRNA per well (2 µl of 400 nM stock)
- Timing: 3 days
- Detection: 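Percent of the per-plate non-targeting control median for intracellular GFP per well by laser scanning cytometry and for cell viability by ATP luminescence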
- Scale: GFP, % of control: higher = more GFP per well, higher productivity; viability (ATP), % of control: higher = more viable cells (more ATP)
- Hit rule: 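a knock-down is called active if GFP reaches 120% or more of non-targeting control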
This is a random part of about 50,000 reagents. In the full data, about 4,000 (8%) got an active call. 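Mouse siRNA library applied to hamster cells; one well for each siRNA.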 Unmarked entries are inactive. The numbers tell different reagents against one gene apart.

Nap1l5 #1: GFP, % of control = 124 (active); viability (ATP), % of control = 78.2
Nap1l5 #2: GFP, % of control = 76.4; viability (ATP), % of control = 94.9
Nap1l5 #3: GFP, % of control = 70.2; viability (ATP), % of control = 50.6
Ttc36 #1: GFP, % of control = 113; viability (ATP), % of control = 92.6
Ttc36 #2: GFP, % of control = 83.6; viability (ATP), % of control = 73.6
Ttc36 #3: GFP, % of control = 123 (active); viability (ATP), % of control = 154
BB014433 #1: GFP, % of control = 81.3; viability (ATP), % of control = 59.9
BB014433 #2: GFP, % of control = 85.9; viability (ATP), % of control = 87.8
BB014433 #3: GFP, % of control = 128 (active); viability (ATP), % of control = 119

Continued (2 carried over from the part before).
BB014433 #2: GFP, % of control = 85.9; viability (ATP), % of control = 87.8
BB014433 #3: GFP, % of control = 128 (active); viability (ATP), % of control = 119
Trrap: GFP, % of control = 166 (active); viability (ATP), % of control = 116
Tmem80 #1: GFP, % of control = 100; viability (ATP), % of control = 77.1
Tmem80 #2: GFP, % of control = 57.2; viability (ATP), % of control = 56.6
Tmem80 #3: GFP, % of control = 66.5; viability (ATP), % of control = 97.5
Fblim1 #1: GFP, % of control = 85.1; viability (ATP), % of control = 39.7
Fblim1 #2: GFP, % of control = 28.3; viability (ATP), % of control = 42.2
Fblim1 #3: GFP, % of control = 99.9; viability (ATP), % of control = 91.5
